Results deposited as PubChem BioAssay AID686938 (Drosophila RNAi Screening Center, 2013)
Purpose: 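Knock-downs reducing store-operated calcium influx in Drosophila cells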 (primary screen). Cell system: Drosophila S2R+ cells. Knock-down reagent: long dsRNA against Drosophila genes, about 0.25 µg dsRNA per well, roughly 10,000 cells. Timing: 5 days of knock-down before the calcium assay. Challenge: thapsigargin (SERCA pump blocker) to empty calcium stores; entry signal taken 4 min after adding it. Detection: 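Per-well fluo-4 fluorescence in two replicates, unnormalised, measured in resting cells and 4 min after store depletion by the SERCA blocker thapsigargin; ratio of the two present in few wells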. Direction: calcium entry signal: higher = stronger calcium signal after store depletion; entry to resting ratio: higher = more calcium entry relative to resting level; resting calcium signal: higher = higher resting calcium signal. Hit rule: 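Hit if the duplicate-averaged plate z-score for entry over resting signal is under −3; wells with weak total dye signal (Fmax z < −2) or more than 5 off-targets removed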. Calls: active = strongly reduced calcium entry; inactive = no strong reduction.
In all, the deposit lists about 23,000 reagents; shown is a random part of those with a known target gene and a result. Of all reagents, 75 (0.33%) are marked active. 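Raw plate signals without normalisation; calls rest on plate z-scores that were not deposited; ratio present for only 364 wells.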 A number with no mark means an inactive call. Names joined by + are all predicted targets of the reagent. The record does not give: the dose of the treatment.

The first 3 entries as a preview:
Target gene	dsRNA	calcium entry signal, replicate 1 (fluorescence units)	calcium entry signal, replicate 2 (fluorescence units)	entry to resting ratio	resting calcium signal, replicate 1 (fluorescence units)	resting calcium signal, replicate 2 (fluorescence units)
CG18234	DRSC10309	3.99e7	6.43e7		1.95e7	2.57e7
CG14630	DRSC18166	5.36e7	6.15e7	2	2.64e7	2.58e7
CG14630	DRSC18653	4.83e7	4.62e7	2	2.39e7	2.12e7

The list itself, from the first entry:
Target gene	dsRNA	calcium entry signal, replicate 1 (fluorescence units)	calcium entry signal, replicate 2 (fluorescence units)	entry to resting ratio	resting calcium signal, replicate 1 (fluorescence units)	resting calcium signal, replicate 2 (fluorescence units)
CG18234	DRSC10309	3.99e7	6.43e7		1.95e7	2.57e7
CG14630	DRSC18166	5.36e7	6.15e7	2	2.64e7	2.58e7
CG14630	DRSC18653	4.83e7	4.62e7	2	2.39e7	2.12e7
wap (wings apart)	DRSC20626	3.44e7	3.92e7		1.56e7	1.85e7
CG10700	DRSC02096	4.27e7	4.52e7		2.01e7	1.93e7
CG33673	DRSC00084	4.74e7	3.23e7		2.33e7	1.55e7
Ggamma30A (G protein gamma subunit 30A)	DRSC02715	2.98e7	4.70e7		1.52e7	1.99e7
Ggamma30A (G protein gamma subunit 30A)	DRSC03331	2.97e7	4.46e7		1.37e7	1.97e7
CG31550	DRSC12197	4.24e7	3.14e7		1.98e7	1.52e7
CG31550	DRSC12198	2.45e7	3.47e7		1.13e7	1.53e7
Spn47C (Serpin 47C)	DRSC07030	2.56e7	2.75e7		1.20e7	1.32e7
CG13585	DRSC04221	4.09e7	4.94e7		2.05e7	2.02e7
IFT43 (Intraflagellar transport 43)	DRSC02892	3.88e7			1.98e7	
Tsp42Ed (Tetraspanin 42Ed)	DRSC05940	2.73e7	1.95e7		1.27e7	1.05e7
Rab3GAP1 (RAB3 GTPase activating protein subunit 1)	DRSC00291	3.81e7	5.01e7		1.84e7	2.00e7
Rab3GAP1 (RAB3 GTPase activating protein subunit 1)	DRSC00703	4.05e7	4.98e7		1.98e7	2.06e7
Ir10a (Ionotropic receptor 10a)	DRSC18891	2.75e7	2.66e7		1.33e7	1.33e7
Ir10a (Ionotropic receptor 10a)	DRSC19478	4.42e7	3.75e7		2.09e7	1.93e7
Ir10a (Ionotropic receptor 10a)	DRSC19479	4.10e7	4.85e7		1.88e7	2.20e7
CG31268	DRSC13203	3.33e7	3.73e7		1.90e7	1.69e7
Nost (Nostrin)	DRSC18037	2.15e7	3.03e7		1.10e7	1.46e7
Nost (Nostrin)	DRSC18338	2.48e7	2.90e7		1.16e7	1.30e7
CG11617	DRSC00321	3.48e7	3.91e7		1.90e7	1.63e7
CG11617	DRSC21786	3.88e7	3.23e7		2.00e7	1.53e7
CG31937	DRSC00514	5.11e7			2.64e7	
Or46a + asRNA:CR43467	DRSC07489	2.61e7	3.00e7		1.26e7	1.46e7
Or46a + asRNA:CR43467	DRSC07490	2.72e7	2.98e7		1.23e7	1.41e7
Or46a + asRNA:CR43467	DRSC21590	3.56e7	2.92e7		1.78e7	1.32e7
Cyp4ac1 (Cytochrome P450 4ac1)	DRSC03302	4.87e7	3.19e7		2.21e7	1.51e7
CG2938	DRSC18243	3.63e7	5.27e7		1.79e7	2.40e7
CG30375	DRSC06834	4.83e7	3.91e7		2.09e7	1.69e7
Best2 (Bestrophin 2)	DRSC09712	2.90e7	4.44e7		1.41e7	1.93e7
CG12236	DRSC17830	2.91e7	3.67e7		1.88e7	1.76e7
CG12236	DRSC17831	4.09e7	4.74e7		1.95e7	2.21e7
unc-104 (uncoordinated-104)	DRSC07710	3.88e7	4.90e7		1.80e7	2.36e7
lncRNA:CR43632 (long non-coding RNA:CR43632)	DRSC13730	3.22e7	3.88e7		1.53e7	1.78e7
Fum4 (Fumarase 4)	DRSC22577	2.82e7	3.06e7		1.47e7	1.43e7
m (miniature)	DRSC20181	3.30e7	3.62e7		1.71e7	1.72e7
LeuRS-m (Leucyl-tRNA synthetase, mitochondrial)	DRSC08595	4.80e7	3.86e7		3.33e7	1.60e7
sip3 (septin interacting protein 3)	DRSC15402	4.67e7	4.61e7		1.85e7	1.96e7
